From patent publication US20230067770A1
No constants are given. Whether binding was seen depends on the method and setting. Some entries that bind do so weakly or less than the wild type.

By UniProt entry, the sequences of proteins in these tests, tags left out. Residues count along the entry.
UniProt A9YYE7, residues 24-186: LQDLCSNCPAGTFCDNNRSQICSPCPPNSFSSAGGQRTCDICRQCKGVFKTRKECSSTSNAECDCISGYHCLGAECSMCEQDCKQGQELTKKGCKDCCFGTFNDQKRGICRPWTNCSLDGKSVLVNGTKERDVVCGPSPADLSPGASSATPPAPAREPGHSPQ

Assays:
[1] = molecular target: cynomolgus-CD137 (ELISA antigen of the affinity maturation screen) (cynomolgus) (UniProt A9YYE7); assay: ELISA of Fab in supernatants after phage panning
[2] = molecular target: Cyno CD137-his (cynomolgus monkey) (UniProt A9YYE7); assay: BLI (Octet Red 96), antibody captured on AHC sensor

Row | Binder | binding [1] | binding [2]
1 | Clone 5 (Fab in supernatant) (Fab, V domains shown) VH: QVQLVQSGAEVKKPGASVKVSCKASGFNIRDTYIHWVRQAPGQGLEWMGKIDPANGNTEYAQKFQGRVTMTRDTSTSTVYMELSSLRSEDTAVYYCTTGNLHYGLMDYWGQGTSVTVSS VL: DIQMTQSPSSVSASVGDRVTITCKASQAINTYHSWYQQKPGKAPKLLIYRVNRMVDGVPSRFSGSGSGTDFTLTISSLQPEDFATYYCLQYLDFPYTFGGGTKLEIKR | binds | 
2 | Clone 2-9 (Fab in supernatant) (Fab, V domains shown) VH: QVQLVQSGAEVKKPGASVKASCKASGFNIQDTYIHWVRQAPGQGLEWMGRIDPANGNSEYAQKFQGRVTMTRDTSTSTVYMELSSLRSEDTAVYYCTTGNLHYALMDYWGQGTSVTVSS VL: DIQMTQSPSSVSASVGDRVTITCKASQPINTYLSWYQQKPGKAPKLLIYRVNRKVDGVPSRFSGSGSGTDFTLTISSLQPEDFATYYCLQYLDFPYTFGGGTKLEIKR | binds | 
3 | Clone 2-11 (Fab in supernatant) (Fab, V domains shown) VH: QVQLVQSGAEVKKPGASVKVSCKASGFNIKDTYIHWVRQAPGQGLEWMGKIDPANGGTEYAQKFQGRVTMTRDTSTSTVYMELSSLRSEDTAVYYCTTGNLHYALMDYWGQGTSVTVSS VL: DIQMTQSPSSVSASVGDRVTITCKASQPINTYLSWYQQKPGKAPKLLIYRVNRKVDGVPSRFSGSGSGTDFTLTISSLQPEDFATYYCLQYVDFPYTFGGGTKLEIKR | binds | 
4 | Anti-CD137 2-9 IgG2 (antibody, V domains shown) VH: QVQLVQSGAEVKKPGASVKASCKASGFNIQDTYIHWVRQAPGQGLEWMGRIDPANGNSEYAQKFQGRVTMTRDTSTSTVYMELSSLRSEDTAVYYCTTGNLHYALMDYWGQGTSVTVSS VL: DIQMTQSPSSVSASVGDRVTITCKASQPINTYLSWYQQKPGKAPKLLIYRVNRKVDGVPSRFSGSGSGTDFTLTISSLQPEDFATYYCLQYLDFPYTFGGGTKLEIKR |  | binds
5 | Clone 3 (Fab in supernatant) (Fab, V domains shown) VH: QVQLVQSGAEVKKPGASVKVSCKASGFNPKDTYIHWVRQAPGQGLEWMGRIDPANGFTEYAQKFQGRVTMTRDTSTSTVYMELSSLRSEDTAVYYCTTGNLHYALMDYWGQGTSVTVSS VL: DIQMTQSPSSVSASVGDRVTITCKASQAINTYLSWYQQKPGKAPKLLIYRANRMVDGVPSRFSGSGSGTDFTLTISSLQHEDFATYYCLQSDDFPYTFGGGTKLEIKR | binds | 

Next, values leading:

Row | binding [1] | binding [2] | Binder
6 | binds |  | Clone 23 (Fab in supernatant) (Fab, V domains shown) VH: QVQLVQSGAEVKKPGASVKVSCKASGFNIKDTYIHWVRQAPGQGLEWMGKIDPANGQTEYAQKFQGRVTMTRDTSTSTVYMELSSLRSEDTAVYYCTTGNLHYALMDYWGQGTSVTVSS VL: DIQMTQSPSSVSASVGDRVTITCKASQAINTYLSWYQQKPGKAPKLLIYRANRMVGGVPSRFSGSGSGTDFTLTISSLQPEDFATYYCLQYRDFPYTFGGGTKLEIKR
7 | binds |  | Clone 25 (Fab in supernatant) (Fab, V domains shown) VH: QVQLVQSGAEVKKPGASVKVSCKASGFNIQDTYIHWVRQAPGQGLEWMGRIDPANGNSEYAQKFQGRVTMTRDTSTSTVYMELSSLRSEDTAVYYCTTGNLHYGLMDYWGQGTSVTVSS VL: DIQMTQSPSSVSASVGDRVTITCKASQAINTYLSWYQQKPGKAPKLLIYRDNRKVDGVPSRFSGSGSGTDFTLTISSLQPEDFATYYCLQYQDFPYKFGGGTKLEIKR
8 | binds |  | Clone 33 (Fab in supernatant) (Fab, V domains shown) VH: QVQLVQSGAEVKKPGASVKVSCKASGFNIKDTYIQWVRQAPGQGLEWMGKIDPANGNTMYAQKFQGRVTMTRDTSTSTVYMELSSLRSEDTAVYYCTTGNLHYALMDYWGQGTSVTVSS VL: DIQMTQSPSSVSASVGDRVTITCKASQTINTYLSWYQQKPGKAPKLLIYRANRMPDGVPSRFSGSGSGTDFTLTISSLQPEDFATYYCLQYDDFPYTFGGGTKLEIKR
9 | binds |  | Clone 35 (Fab in supernatant) (Fab, V domains shown) VH: QVQLVQSGAEVKKPGASVKVSCKASGFNINDTYIHWVRQAPGQGLEWMGRIDPANGYTEYAQKFQGRVTMTRDTSTSTVYMELSSLRSEDTAVYYCTTGNLHYALMDYWGQGTSVTVSS VL: DIQMTQSPSSVSASVGDRVTITCKASQAIATYLSWYQQKPGKAPKLLIYRANRMVDGVPSRFSGSGSGTDFTLTISSLQPEDFATYYCLQFQDFPYTFGGGTKLEIKR
10 | binds |  | Clone 18 (Fab in supernatant) (Fab, V domains shown) VH: QVQLVQSGAEVKKPGASVKVSCQASGFNIKDTYIHWVRQAPGQGLGWMGKIDPANGMTEYAQKFQGRVTVTRDTSTSTVYMELSSLRSEDTAVYYCTTGNLHYALMDYWGQGTSVTVSS VL: DIQMTQSPSSVSASVGDRVTITCKASQAPNTYLSWYQQKPGKAPKLLIYRANRMVDGVPSRFSGSGSGTDFTLTISSLQPEDFATYYCLQYEDFPYTFGGGTKLEIKR
11 | binds |  | Clone 19 (Fab in supernatant) (Fab, V domains shown) VH: QVQLVQSGAEVKKPGASVKVSCKASGFNMKDTYIHWVRQAPGQGLEWMGKIDPANGATEYAQKFQGRVTMTRDTSTSTVYMELSSLRSEDTAVYYCTTGNLHYGLMDYWGQGTSVTVSS VL: DIQMTQSPSSVSASVGDRVTITCKASQAINTYLSWYQQKPGKAPKLLIYRANRMGDGVPSRFSGSGSGTDFTLTISSLQPEDFATYYCLQSDDFPYTFGGGTKLEIKR
12 | binds |  | Clone 20 (Fab in supernatant) (Fab, V domains shown) VH: QVQLVQSGAEVKKPGASVKVSCKASGFNMKDTYIHWVRQAPGQGLEWMGKIDPANGDTEYAQKFQGRVTMTRDTSTSTVYMELSSLRSEDTAVYYCTTGNLHYALMDYWGQGTSVTVSS VL: DIQMTQSPSSVSASVGDRVTITCKASQAINTYLSWYQQKPGKAPKLLIYRANRAVDGVPSRFSGSGSGTDFTLTISSLQPEDFATYYCLQYLDFPYTFGGGTKLEIKR
13 | binds |  | Clone 9 (Fab in supernatant) (Fab, V domains shown) VH: QVQLVQSGAEVKKPGASVKVSCKASGFNLKDTYIHWVRQAPGQGLEWMGKIDPANGNTEYAQKFQGRVTMTRDTSTSTVYMELSSLRSEDTAVYYCTTGNLHYALMDYWGQGTSVTVSS VL: DIQMTQSPSSVSASVGDRVTITCKASQAIATYLSWYQQKPGKAPKLLIYRANRMYDGVPSRFSGSGSGTDFTLTISSLQPEDFATYYCLQFDDFPYTFGGGTKLEIKR
